Test results reported in patent publication US20020151680A1.
Residue numbers refer to the chain shown, from its start. These are yes or no findings as the source states them, for the method shown. Some binding calls cover weakened binding; strength is not graded here.

Chains of the proteins cited; added tags and fusions are not shown. Residues count along the entry.
UniProt P17948, residues 27-331: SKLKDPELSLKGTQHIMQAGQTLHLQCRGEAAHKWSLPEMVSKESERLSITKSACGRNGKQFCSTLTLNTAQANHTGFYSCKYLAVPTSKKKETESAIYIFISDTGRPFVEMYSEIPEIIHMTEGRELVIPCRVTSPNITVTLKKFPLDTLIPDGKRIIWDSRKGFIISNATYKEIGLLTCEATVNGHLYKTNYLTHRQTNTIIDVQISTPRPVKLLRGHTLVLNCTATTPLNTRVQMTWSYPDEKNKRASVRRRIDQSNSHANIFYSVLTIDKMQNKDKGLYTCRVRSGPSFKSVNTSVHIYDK
UniProt P35968, residues 24-326: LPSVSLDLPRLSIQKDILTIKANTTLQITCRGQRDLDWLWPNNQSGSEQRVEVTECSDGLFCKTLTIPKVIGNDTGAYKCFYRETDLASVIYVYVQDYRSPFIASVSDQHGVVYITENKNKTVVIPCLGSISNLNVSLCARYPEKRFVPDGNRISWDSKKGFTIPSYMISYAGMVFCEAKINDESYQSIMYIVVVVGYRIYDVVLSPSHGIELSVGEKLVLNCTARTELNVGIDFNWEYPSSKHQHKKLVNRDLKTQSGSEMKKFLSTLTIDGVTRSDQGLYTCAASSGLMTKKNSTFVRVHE
UniProt P35916, residues 25-329: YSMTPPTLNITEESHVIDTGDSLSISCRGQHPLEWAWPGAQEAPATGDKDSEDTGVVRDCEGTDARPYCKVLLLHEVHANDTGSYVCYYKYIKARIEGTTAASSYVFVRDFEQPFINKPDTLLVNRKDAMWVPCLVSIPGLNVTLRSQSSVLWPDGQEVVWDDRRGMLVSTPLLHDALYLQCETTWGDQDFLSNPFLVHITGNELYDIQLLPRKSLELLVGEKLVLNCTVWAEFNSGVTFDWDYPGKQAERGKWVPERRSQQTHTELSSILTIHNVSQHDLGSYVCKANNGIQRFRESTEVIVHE

B1: 83-7 (ligand)
chain: AHYNTEILKFMDVYQRSYCHPIETLVDIFQEYPDEIEYIFKPPCVSVYRCGGCCNSEGLQCVPTEESNITMQIMRIKPHQGQHIGEMSFANHTSCRCMSKLD
B2: 83-11 (ligand)
chain: AHYNTEILKFMDVYQRSYCHPIETLVDIFQEYPDEIEYIFKPPCVSVYRCGGCCNSEGLQCVPTEESNITMQIMRITVPLSQGPKPVTISFLQHNKCECRPKKD
B3: 63-1 (ligand)
chain: GQNHHEVVKFMDVYQRSYCHPREVCIDVGKEYPDEIEYIFKPPCVSVYRCGGCCNDEGLECVPTEESNITMQIMRIKPHQGQHIGEMSFLQHNKCECRPKKD
B4: 84-3 (ligand)
chain: AHYNTEILKFMDVYQRSYCHPIETLVDIFQEFGVATNTFFKPSCVPLMRCGGCCNSEGLQCVPTEESNITMQIMRIKPHQGQHIGEMSFLQHNKCECRPKKD
B5: 11-5 (ligand)
chain: GQNHHEVVKFMDVYQRSYCHPIETLVDIFQEYPDEIEYIFKPSCVPLMRCGGCCNDEGLECVPTEESNITMQIMRIKPHQGQHIGEMSFANHTSCRCMSKLD
B6: 11-7 (ligand)
chain: B5 chain with D56S, E60Q
B7: 11-11 (ligand)
chain: GQNHHEVVKFMDVYQRSYCHPIETLVDIFQEYPDEIEYIFKPSCVPLMRCGGCCNSEGLQCVPTEESNITMQIMRITVPLSQGPKPVTISFLQHNKCECRPKKD
B8: 11-15 (ligand)
chain: B7 chain with L92A, Q93N, N95T, K96S, E98R, R100M, P101S, K103L
B9: 81-5 (ligand)
chain: B1 chain with P43S, S46P, V47L, Y48M, S56D, Q60E
B10: 81-7 (ligand)
chain: B1 chain with P43S, S46P, V47L, Y48M
B11: 81-11 (ligand)
chain: B2 chain with P43S, S46P, V47L, Y48M
B12: 81-15 (ligand)
chain: AHYNTEILKFMDVYQRSYCHPIETLVDIFQEYPDEIEYIFKPSCVPLMRCGGCCNSEGLQCVPTEESNITMQIMRITVPLSQGPKPVTISFANHTSCRCMSKLD
B13: 13-5 (ligand)
chain: B5 chain with S43P, P46S, L47V, M48Y
B14: 13-7 (ligand)
chain: B5 chain with S43P, P46S, L47V, M48Y, D56S, E60Q
B15: 22-2 (ligand)
chain: AHYNTEILKSIDNEWRKTQCMPREVCIDVGKEFGVATNTFFKPPCVSVYRCGGCCNDEGLECMNTSTSYLSKTLFEIKPHQGQHIGEMSFLQHNKCECRPKKD
B16: 22-10 (ligand)
chain: AHYNTEILKSIDNEWRKTQCMPREVCIDVGKEFGVATNTFFKPPCVSVYRCGGCCNDEGLECMNTSTSYLSKTLFEITVPLSQGPKPVTISFLQHNKCECRPKKD
B17: 22-12 (ligand)
chain: B16 chain with D57S, E61Q
B18: 62-11 (ligand)
chain: GQNHHEVVKFMDVYQRSYCHPREVCIDVGKEFGVATNTFFKPPCVSVYRCGGCCNSEGLQCVPTEESNITMQIMRITVPLSQGPKPVTISFLQHNKCECRPKKD
B19: 63-7 (ligand)
chain: B3 chain with D56S, E60Q, L90A, Q91N, N93T, K94S, E96R, R98M, P99S, K101L
B20: 82-15 (ligand)
chain: AHYNTEILKFMDVYQRSYCHPIETLVDIFQEFGVATNTFFKPPCVSVYRCGGCCNSEGLQCVPTEESNITMQIMRITVPLSQGPKPVTISFANHTSCRCMSKLD
B21: 72-2 (ligand)
chain: B15 chain with A1G, H2Q, Y3N, N4H, T5H, I7V, L8V
B22: 72-10 (ligand)
chain: B16 chain with A1G, H2Q, Y3N, N4H, T5H, I7V, L8V
B23: 72-4 (ligand)
chain: B15 chain with A1G, H2Q, Y3N, N4H, T5H, I7V, L8V, D57S, E61Q
B24: 72-8 (ligand)
chain: GQNHHEVVKSIDNEWRKTQCMPREVCIDVGKEFGVATNTFFKPPCVSVYRCGGCCNSEGLQCMNTSTSYLSKTLFEIKPHQGQHIGEMSFANHTSCRCMSKLD
B25: 72-12 (ligand)
chain: B16 chain with A1G, H2Q, Y3N, N4H, T5H, I7V, L8V, D57S, E61Q
B26: 22-4 (ligand)
chain: B15 chain with D57S, E61Q
B27: 22-6 (ligand)
chain: B15 chain with L91A, Q92N, N94T, K95S, E97R, R99M, P100S, K102L
B28: 22-8 (ligand)
chain: B24 chain with G1A, Q2H, N3Y, H4N, H5T, V7I, V8L
B29: 32-11 (ligand)
chain: GQNHHEVVKSIDNEWRKTQCMPIETLVDIFQEFGVATNTFFKPPCVSVYRCGGCCNSEGLQCVPTEESNITMQIMRITVPLSQGPKPVTISFLQHNKCECRPKKD
B30: 32-15 (ligand)
chain: B29 chain with L93A, Q94N, N96T, K97S, E99R, R101M, P102S, K104L
B31: 52-9 (ligand)
chain: B29 chain with G1A, Q2H, N3Y, H4N, H5T, V7I, V8L, S57D, Q61E
B32: 52-11 (ligand)
chain: B29 chain with G1A, Q2H, N3Y, H4N, H5T, V7I, V8L
B33: 82-14 (ligand)
chain: AHYNTEILKFMDVYQRSYCHPIETLVDIFQEFGVATNTFFKPPCVSVYRCGGCCNDEGLECMNTSTSYLSKTLFEITVPLSQGPKPVTISFANHTSCRCMSKLD
B34: 82-16 (ligand)
chain: B33 chain with D56S, E60Q
B35: 72-6 (ligand)
chain: B24 chain with S57D, Q61E
B36: 22-3 (ligand)
chain: AHYNTEILKSIDNEWRKTQCMPREVCIDVGKEFGVATNTFFKPPCVSVYRCGGCCNSEGLQCVPTEESNITMQIMRIKPHQGQHIGEMSFLQHNKCECRPKKD
B37: 12-16 (ligand)
chain: GQNHHEVVKFMDVYQRSYCHPIETLVDIFQEFGVATNTFFKPPCVSVYRCGLLQ

Target: VEGFR-1-Fc (UniProt P17948)
Assay: 35S IP, receptor-Fc

B1 was tested. Which binding did it give?
The binding was “binds”.

With B2 as the binder, how does the binding read?
Its binding is “binds”.

Which binding does the source give for B3 here?
Its binding is “binds”.

B4 was tested. Which binding did it give?
Its binding is “binds”.

Which binding does the source give for B5 here?
Its binding is “binds”.

For B6, which binding is on record?
Its binding is “binds”.

For B7, which binding is on record?
The binding was “binds”.

With B8 as the binder, how does the binding read?
The binding was “binds”.

How did the binding turn out when B9 was run?
The binding was “binds”.

With B10 as the binder, how does the binding read?
The binding was “binds”.

For B11, which binding is on record?
The binding was “binds”.

How did the binding turn out when B12 was run?
Its binding is “binds”.

For B13, which binding is on record?
The binding was “binds”.

B14 was tested. Which binding did it give?
The binding was “binds”.

Target: VEGFR-2-Fc (UniProt P35968)
Assay: 35S IP, receptor-Fc

Which binding does the source give for B15 here?
The binding was “binds”.

For B16, which binding is on record?
Its binding is “binds”.

Which binding does the source give for B1 here?
The binding was “binds”.

B2 was tested. Which binding did it give?
Its binding is “binds”.

B17 was tested. Which binding did it give?
The binding was “binds”.

How did the binding turn out when B18 was run?
Its binding is “binds”.

How did the binding turn out when B3 was run?
The binding was “binds”.

How did the binding turn out when B19 was run?
The binding was “binds”.

How did the binding turn out when B20 was run?
The binding was “binds”.

How did the binding turn out when B4 was run?
Its binding is “binds”.

For B21, which binding is on record?
The binding was “binds”.

B22 was tested. Which binding did it give?
Its binding is “binds”.

How did the binding turn out when B23 was run?
Its binding is “binds”.

Which binding does the source give for B24 here?
Its binding is “binds”.

For B25, which binding is on record?
The binding was “binds”.

With B5 as the binder, how does the binding read?
Its binding is “binds”.

How did the binding turn out when B6 was run?
The binding was “binds”.

With B26 as the binder, how does the binding read?
Its binding is “binds”.

For B7, which binding is on record?
Its binding is “binds”.

With B8 as the binder, how does the binding read?
The binding was “binds”.

How did the binding turn out when B27 was run?
Its binding is “binds”.

For B9, which binding is on record?
Its binding is “binds”.

For B10, which binding is on record?
Its binding is “binds”.

Which binding does the source give for B11 here?
The binding was “binds”.

For B12, which binding is on record?
The binding was “binds”.

For B28, which binding is on record?
The binding was “binds”.

For B13, which binding is on record?
Its binding is “binds”.

With B14 as the binder, how does the binding read?
The binding was “binds”.

Target: VEGFR-3-Fc (UniProt P35916)
Assay: 35S IP, receptor-Fc

With B15 as the binder, how does the binding read?
Its binding is “binds”.

B16 was tested. Which binding did it give?
The binding was “binds”.

With B17 as the binder, how does the binding read?
The binding was “binds”.

How did the binding turn out when B29 was run?
Its binding is “binds”.

For B30, which binding is on record?
Its binding is “binds”.

For B31, which binding is on record?
The binding was “binds”.

For B32, which binding is on record?
Its binding is “binds”.

With B18 as the binder, how does the binding read?
Its binding is “binds”.

For B19, which binding is on record?
Its binding is “binds”.

How did the binding turn out when B33 was run?
The binding was “binds”.

B20 was tested. Which binding did it give?
The binding was “binds”.

With B34 as the binder, how does the binding read?
Its binding is “binds”.

B21 was tested. Which binding did it give?
Its binding is “binds”.

With B22 as the binder, how does the binding read?
Its binding is “binds”.

Which binding does the source give for B23 here?
Its binding is “binds”.

For B35, which binding is on record?
Its binding is “binds”.

Which binding does the source give for B24 here?
Its binding is “binds”.

For B25, which binding is on record?
The binding was “binds”.

B36 was tested. Which binding did it give?
Its binding is “binds”.

For B26, which binding is on record?
The binding was “binds”.

For B27, which binding is on record?
The binding was “binds”.

With B37 as the binder, how does the binding read?
Its binding is “binds”.

How did the binding turn out when B28 was run?
Its binding is “binds”.

Target: VEGFR-2-Fc (UniProt P35968)
Assay: 35S IP, receptor-Fc, relative signal strength

How did the binding turn out when B22 was run?
The binding was “binds”.

Target: VEGFR-3-Fc (UniProt P35916)
Assay: 35S IP, receptor-Fc, relative signal strength

B22 was tested. Which binding did it give?
The binding was “binds”.
